{"source": "patent US20260240846A1", "about": "“ZAK ALPHA KINASE (MAP3K20) INHIBITORS FOR USE IN THE TREATMENT OF ANEMIA” (UNIVERSIDAD DE MURCIA, priority 2023, published 2026)", "key": {"zebrafish larvae": {"test_system": "zebrafish larvae", "assay": "Chemical treatment of zebrafish larvae by bath immersion; counting of neutrophils and erythrocytes", "assay_type": "in vivo, Zebrafish (Danio rerio H.)", "protocol": "FIG. 3. ZAKα regulates hematopoiesis in zebrafish through the Nlrp1 inflammasome. Number of neutrophils (B, D, H), erythrocytes (F) and macrophages (J), and caspase-1 activity (K) in 2 dpf larvae either treated from 1 to 2 dpf by bath immersion with 1 μM nilotinib and/or 100 μM anisomycin (A-D) or obtained by injecting one-cell stage embryos with standard or zaka crRNAs/Cas9 complexes (E-K). Representative images of neutrophils (A, C, G), erythrocytes (E) and macrophages (I) are also shown. Each dot represents one individual and the mean±SEM for each group is also shown. P values were calculated using one-way ANOVA and Tukey's multiple range test (B) or Student's t-test (D, F, H, J, K). n.s., non-significant; *P<0.05; **P<0.01; ***P<0.001.\nFIG. 6. […] (E, F) BMMCs from a DBA patient were incubated for 2 weeks in human methylcellulose complete medium at 37° C. in the presence or absence of the indicated concentrations of nilotinib, and colonies were counted using standard morphological criteria. […] P values were calculated by one-way ANOVA and Tukey's multiple range test. n.s., non-significant; *P<0.05; **P<0.01; ***P<0.001; ****P<0.0001.\nFIG. 10. […] The amounts of NLRP1, GATA1, phosphorylated P38, total ZAKα and ACTB were then evaluated by western blot. […] P values were calculated by one-way ANOVA and Tukey's multiple range test. n.s., non-significant. ***P<0.001; ****P<0.0001. […]"}, "HSPCs from DBA patients": {"test_system": "HSPCs from DBA patients", "assay": "Colony assay of PBMCs from DBA patients in methylcellulose medium", "assay_type": "cell-based, human", "conditions": "2 weeks, indicated concentrations (FIG. 13A)", "protocol": "FIG. 13. […] PBMCs from DBA patients were incubated for 2 weeks in human methylcellulose complete medium at 37° C. in the presence or absence of the indicated concentrations of nilotinib, imatinib, dasatinib, bosutinib and ponatinib, and the number of erythroid (A) and myeloid (B) colonies counted using standard morphological criteria. Each dot represents one patient and the means±SEM for each group is also shown."}, "K562 cells": {"test_system": "K562 cells", "assay": "Erythroid differentiation assay in K562 cells (hemin; hemoglobin accumulation, western blot)", "assay_type": "cell-based, human", "conditions": "indicated concentrations of TKI 24 h; for GATA1 protein amounts: western blot (FIG. 10A, 11A); for erythroid differentiation of K562 cells: then 50 μM hemin (FIG. 10A, 11A)", "protocol": "FIG. 1. ZAKα/P38 signaling pathway is activated in K562 after erythroid differentiation and its inhibition facilitates terminal erythroid differentiation. K562 cells were pre-treated with 0.1 μM nilotinib (Nil) (A, C, D), 1 μM anisomycin (B) and/or the indicated concentrations of the […] CX-5461 for 24 h, and then differentiated with 50 μM hemin for another 24 h. Hemoglobin accumulation (A, B, D) and NLRP1, phosphorylated P38, GATA1, ZAKα and ACTB (A-C) amounts were then evaluated by western blot. Immunoblots are representative of 3 independent experiments. #1, ACTB; #2, GATA1.\nFIG. 2. The ZAKα/P38 signaling pathways is activated in K562 after erythroid differentiation. K562 cells were pre-treated with 0.1 μM nilotinib for 24 h and then differentiated with 50 μM hemin for the indicated times. The amounts of NLRP1, GATA1, phosphorylated P38, total ZAKα, phosphorylated ZAKα (Phos-tag) and ACTB were then evaluated by western blot.\nFIG. 10. Imatinib and dasatinib promote erythropoiesis in human and zebrafish. (A) K562 cells were pretreated with the indicated concentrations of nilotinib, imatinib or dasatinib for 24 h and then differentiated with 50 μM hemin for 24 h. The amounts of NLRP1, GATA1, phosphorylated P38, total ZAKα and ACTB were then evaluated by western blot. (B) Zebrafish larvae were treated from 1 to 2 dpf with the indicated concentrations of nilotinib, imatinib or dasatinib. Representative images and number of neutrophils in larvae of 2 dpf treated by bath immersion with the indicated concentrations of imatinib and dasatinib. Each dot represents one individual and the mean±SEM for each group is also shown. P values were calculated by one-way ANOVA and Tukey's multiple range test. n.s., non-significant. ***P<0.001; ****P<0.0001.\nFIG. 11. Ponatinib and bosutinib promote erythropoiesis in human and zebrafish. (A) K562 cells were pretreated with the indicated concentrations of nilotinib, ponatinib and bosutinib for 24 h and then differentiated with 50 μM hemin for the indicated times. The amounts of NLRP1, total ZAKα, GATA1, phosphorylated P38 and ACTB were then evaluated by western blot. (B) Number of neutrophils in larvae of 2 dpf treated by bath immersion with the indicated concentrations of ponatinib and bosutinib. Each dot represents one individual and the mean±SEM for each group is also shown. P values were calculated by one-way ANOVA and Tukey's multiple range test. n.s., non-significant, *P<0.05. **P<0.01. ***P<0.001.\nK562 cells (CRL-3343; American Type Culture Collection) were maintained in RPMI culture medium supplemented with 10% fetal calf serum (FCS), 2 mM Glutamine, and 1% penicillin-streptomycin (Life Technologies). Cells were maintained and subcultured before confluence every 72 h. For differentiation, cells were treated with 50 μM hemin (#16009-13-5, Sigma-Aldrich) in the presence of 0.1% DMSO alone or with the caspase-1 inhibitor VX-765 (100 μM), the tyrosine kinase inhibitor nilotinib (0.1 μM), the RNA polymerase I inhibitor CX-5461 (200 nM, 1 μM and 10 μM) (all from MedChemExpress). Cells were collected at different time points (0, 24, 48 hours post-hemin addition), centrifuged, washed twice with PBS, and stored at −80° C. for further analysis.\nCells were lysed in 50 mM Tris-HCl (pH 7.5), 150 mM NaCl, 1% (w/v) NP-40 and fresh protease inhibitor (1/20, #P8340, Sigma-Aldrich). Protein quantification was performed with the BCA kit using BSA as standard. […]"}}, "note": "At least one structure is not confirmed: it was looked up by name or label, or the drawing left a doubt."}
{"compound": "COc1cc(Nc2c(C#N)cnc3cc(OCCCN4CCN(C)CC4)c(OC)cc23)c(Cl)cc1Cl", "note": "[bosutinib]", "values": [{"measurement": "erythroid differentiation in zebrafish larvae", "setting": "zebrafish larvae; larvae 2 dpf, bath immersion, indicated concentrations (FIG. 11B)", "value": "promoted erythroid differentiation"}, {"measurement": "defective erythropoiesis of HSPCs from DBA patients (erythroid colonies)", "setting": "HSPCs from DBA patients", "value": "alleviated defective erythropoiesis"}, {"measurement": "GATA1 protein amounts", "setting": "K562 cells; K562 cells, then 50 μM hemin", "value": "induce in a dose-dependent manner"}, {"measurement": "phosphorylation of P38", "setting": "K562 cells; K562 cells, then 50 μM hemin, western blot (FIG. 11A)", "value": "reduced"}, {"measurement": "erythroid differentiation of K562 cells", "setting": "K562 cells", "value": "promoted erythroid differentiation"}]}
{"compound": "Cc1nc(Nc2ncc(C(=O)Nc3c(C)cccc3Cl)s2)cc(N2CCN(CCO)CC2)n1", "note": "[dasatinib]", "values": [{"measurement": "number of erythrocytes in zebrafish larvae", "setting": "zebrafish larvae; bath immersion 1 to 2 dpf, imatinib 1 and 10 μM, dasatinib 0.1 and 1 μM (FIG. 10B)", "value": "enhanced the number of erythrocytes"}, {"measurement": "defective erythropoiesis of HSPCs from DBA patients (erythroid colonies)", "setting": "HSPCs from DBA patients", "value": "alleviated defective erythropoiesis"}, {"measurement": "GATA1 protein amounts", "setting": "K562 cells; K562 cells, then 50 μM hemin", "value": "enhancing GATA1 amount"}, {"measurement": "erythroid differentiation of K562 cells", "setting": "K562 cells", "value": "promoted erythroid differentiation of K562 cells by blocking the ZAKα/P38 axis"}]}
